The values below come from patent publication US20110021579A1, “PERITONEUM PROTECTING AGENT” (TOKAI UNIVERSITY EDUCATIONAL SYSTEM, priority 2005, published 2011).

Molecules are shown by their SMILES.

A short description of the data set: Biochemical data and body weight of subtotally nephrectomized uremic rats undergoing peritoneal dialysis. Format: in vivo. As to conditions: 21 weeks, mean ± SD. The source says: Six-week-old male Sprague-Dawley rats weighing 200±3 g (CLER Japan, Inc., Tokyo) were randomly assigned to: sham-operated control rats (Group 1: n=6); uremic rats without peritoneal dialysis (Group 2: n=12); and uremic rats undergoing peritoneal dialysis (n=24). The uremic rats undergoing peritoneal dialysis were further divided into two groups: a group dialyzed with 4.25% Dianeal (registered trademark) (3.86% glucose, 2.5 mEq/CAPD fluid, Baxter Healthcare Corp., Round Lake; IL, USA) (Group 3: n=12); and a group peritoneally dialyzed with 4.25% Dianeal (registered trademark) containing pyridoxamine (Pridorine, Biostratum Inc., NC, USA) at 5 mg/l (Group 4: n=12).
Uremic models were generated by 5/6 nephrectomy according to previous reports [Lameire N, et al. Kidney Int 54: 2194-2206, 1998; and Kleinknecht C, et al., Kidney Int 47: S51-S54, 1995]. The animals were provided free access to standard experimental rat chow (CE2: CLER Japan, Inc., Tokyo) containing 1.06% calcium, 0.9% phosphate, and 21% proteins, and tap water until the evening prior to slaughter. On the 13th week, Rat-o-Ports with a 13.5 cm catheter (Access Technologies, Norfolk Medical, Skokie, Ill., USA) were implanted into all the rats under anesthetization of isoflurane. The Rat-o-ports were implanted subcutaneously in the neck, after one week of which the peritoneal dialysis with 30 ml of dialysate was initiated twice a day. The PD was continued for 6 weeks [Zweers MM, et al., Nephrol Dial Transplant 16: 651-654, 2001]. Before the initiation of the peritoneal dialysis, four, five, and two rats had died respectively in Group 2, Group 3, and Group 4. In the end, there were obtained: sham-operated control group (Group 1: n=6); uremic group without peritoneal dialysis (Group 2: n=8); uremic group undergoing peritoneal dialysis (Group 3: n=7); and uremic group undergoing peritoneal dialysis with 5 mg pyridoxamine (Group 4: n=10).
After 6 weeks of PD, 4.25% Dianeal (registered trademark) was injected from the access port and a peritoneal equilibration test (60 minutes) was performed. Rats were then euthanatized by overanesthetization. Plasma was separated from the heparinized blood obtained at the 21st week. Mesenterium was excised and assessed by light microscopy or immunohistochemistry.
The concentrations of glucose, creatinine, urea, total cholesterol, and triglyceride in plasma and peritoneal dialysate were measured with an autoanalyzer (Hitachi 736-60, Hitachi Co. Ltd., Tokyo).

Setting [1] is: 6-week PD with pyridoxamine 5 mg/l (Group 4).

Compound `Cc1ncc(CO)c(CN)c1O` [pyridoxamine] displayed a Plasma creatinine (6-week PD with 4.25% Dianeal containing pyridoxamine 5 mg/l (Group 4)) of 1.3 ± 0.6 mg/dL. Under setting [1], the Plasma glucose worked out at 155.2 ± 20.5 mg/dL, the Plasma urea amounted to 70.1 ± 23.4 mg/dL, the Total cholesterol is 125.4 ± 31.8 mg/dL and the Triglycerides was 122.5 ± 50.2 mg/dL.
